Results are given in words; binding and its absence hold for the method and conditions named. In cells and extracts the contact can be indirect. Tags and fused reporters may be left off the sequences shown.
Biological target: T1, AtRLP23 fused to YNE (A. thaliana) (UniProt O48849)
T1 sequence: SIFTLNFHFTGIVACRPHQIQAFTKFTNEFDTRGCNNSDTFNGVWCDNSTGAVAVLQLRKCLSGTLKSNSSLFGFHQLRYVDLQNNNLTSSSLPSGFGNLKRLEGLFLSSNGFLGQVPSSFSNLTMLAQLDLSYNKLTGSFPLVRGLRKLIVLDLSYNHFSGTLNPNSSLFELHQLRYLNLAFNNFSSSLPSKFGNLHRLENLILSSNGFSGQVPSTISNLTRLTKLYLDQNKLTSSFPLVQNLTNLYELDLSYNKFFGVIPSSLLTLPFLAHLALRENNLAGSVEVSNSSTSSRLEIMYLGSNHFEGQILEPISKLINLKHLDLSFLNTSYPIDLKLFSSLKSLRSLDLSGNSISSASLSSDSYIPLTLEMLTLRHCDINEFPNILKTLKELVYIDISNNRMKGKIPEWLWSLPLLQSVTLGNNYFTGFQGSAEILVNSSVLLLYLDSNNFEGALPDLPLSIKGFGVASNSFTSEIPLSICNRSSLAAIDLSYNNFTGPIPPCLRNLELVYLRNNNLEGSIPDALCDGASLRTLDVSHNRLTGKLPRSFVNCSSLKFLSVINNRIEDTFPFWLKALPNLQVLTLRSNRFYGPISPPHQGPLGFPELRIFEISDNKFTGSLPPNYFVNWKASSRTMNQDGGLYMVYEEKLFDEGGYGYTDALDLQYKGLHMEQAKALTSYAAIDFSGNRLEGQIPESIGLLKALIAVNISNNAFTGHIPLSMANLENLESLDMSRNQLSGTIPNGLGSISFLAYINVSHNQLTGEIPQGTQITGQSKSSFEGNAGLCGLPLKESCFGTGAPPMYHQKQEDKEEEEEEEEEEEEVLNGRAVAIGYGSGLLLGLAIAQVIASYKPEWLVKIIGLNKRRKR
Assay: split reporter; BiFC with YNE and YCE halves of YFP (pSPYNE, pSPYCE), co-infiltrated by Agrobacterium GV3101 into N. benthamiana leaves, imaged 36-72 h after infiltration

SsNEP2 fused to YCE (S. sclerotiorum)
binding: no binding

— paper PMC12110989
